Reference: the supplement of paper PMC10849652
This is one part of the list. Residues, ends and D or L forms follow the SMILES beside them. *: point of attachment. Cbz = O=C(OCc1ccccc1)*

The chains behind the UniProt entries cited, without tags or fusion partners. Where a name states a change or a piece, a line headed by the entry shows the natural chain unless it says otherwise.
UniProt Q8TD19: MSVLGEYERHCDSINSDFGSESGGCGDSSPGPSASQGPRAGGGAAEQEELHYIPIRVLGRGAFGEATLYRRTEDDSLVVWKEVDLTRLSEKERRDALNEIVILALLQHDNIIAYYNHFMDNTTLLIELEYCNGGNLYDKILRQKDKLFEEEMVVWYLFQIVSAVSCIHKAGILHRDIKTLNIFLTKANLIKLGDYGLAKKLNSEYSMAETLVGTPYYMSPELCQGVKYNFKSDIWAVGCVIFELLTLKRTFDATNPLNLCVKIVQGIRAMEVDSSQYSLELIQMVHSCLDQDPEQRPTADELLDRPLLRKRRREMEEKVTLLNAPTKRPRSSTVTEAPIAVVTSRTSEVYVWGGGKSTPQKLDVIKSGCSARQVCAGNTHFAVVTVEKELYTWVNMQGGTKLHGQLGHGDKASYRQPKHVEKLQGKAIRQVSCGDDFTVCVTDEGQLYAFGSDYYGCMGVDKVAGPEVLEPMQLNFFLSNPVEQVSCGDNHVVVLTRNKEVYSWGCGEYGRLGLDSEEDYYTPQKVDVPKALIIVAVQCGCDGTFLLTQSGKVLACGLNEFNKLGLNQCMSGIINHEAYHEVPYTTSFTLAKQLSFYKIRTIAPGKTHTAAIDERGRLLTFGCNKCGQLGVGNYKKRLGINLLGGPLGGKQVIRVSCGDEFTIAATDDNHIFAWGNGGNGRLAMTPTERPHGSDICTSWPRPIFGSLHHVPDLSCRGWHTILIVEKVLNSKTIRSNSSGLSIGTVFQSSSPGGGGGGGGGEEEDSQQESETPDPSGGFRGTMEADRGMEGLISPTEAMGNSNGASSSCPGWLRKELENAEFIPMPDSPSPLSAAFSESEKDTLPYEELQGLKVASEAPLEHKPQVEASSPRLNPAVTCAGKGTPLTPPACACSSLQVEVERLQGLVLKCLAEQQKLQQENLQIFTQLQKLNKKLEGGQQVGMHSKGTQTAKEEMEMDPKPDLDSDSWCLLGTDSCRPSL
UniProt Q9UFN0: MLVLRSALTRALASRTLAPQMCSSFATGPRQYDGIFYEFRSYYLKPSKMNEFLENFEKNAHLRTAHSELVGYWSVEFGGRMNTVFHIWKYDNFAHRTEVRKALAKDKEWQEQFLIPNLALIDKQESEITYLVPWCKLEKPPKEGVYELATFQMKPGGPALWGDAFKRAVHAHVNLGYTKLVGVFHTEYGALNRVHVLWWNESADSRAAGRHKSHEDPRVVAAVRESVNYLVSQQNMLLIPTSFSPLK
UniProt Q7RTR2: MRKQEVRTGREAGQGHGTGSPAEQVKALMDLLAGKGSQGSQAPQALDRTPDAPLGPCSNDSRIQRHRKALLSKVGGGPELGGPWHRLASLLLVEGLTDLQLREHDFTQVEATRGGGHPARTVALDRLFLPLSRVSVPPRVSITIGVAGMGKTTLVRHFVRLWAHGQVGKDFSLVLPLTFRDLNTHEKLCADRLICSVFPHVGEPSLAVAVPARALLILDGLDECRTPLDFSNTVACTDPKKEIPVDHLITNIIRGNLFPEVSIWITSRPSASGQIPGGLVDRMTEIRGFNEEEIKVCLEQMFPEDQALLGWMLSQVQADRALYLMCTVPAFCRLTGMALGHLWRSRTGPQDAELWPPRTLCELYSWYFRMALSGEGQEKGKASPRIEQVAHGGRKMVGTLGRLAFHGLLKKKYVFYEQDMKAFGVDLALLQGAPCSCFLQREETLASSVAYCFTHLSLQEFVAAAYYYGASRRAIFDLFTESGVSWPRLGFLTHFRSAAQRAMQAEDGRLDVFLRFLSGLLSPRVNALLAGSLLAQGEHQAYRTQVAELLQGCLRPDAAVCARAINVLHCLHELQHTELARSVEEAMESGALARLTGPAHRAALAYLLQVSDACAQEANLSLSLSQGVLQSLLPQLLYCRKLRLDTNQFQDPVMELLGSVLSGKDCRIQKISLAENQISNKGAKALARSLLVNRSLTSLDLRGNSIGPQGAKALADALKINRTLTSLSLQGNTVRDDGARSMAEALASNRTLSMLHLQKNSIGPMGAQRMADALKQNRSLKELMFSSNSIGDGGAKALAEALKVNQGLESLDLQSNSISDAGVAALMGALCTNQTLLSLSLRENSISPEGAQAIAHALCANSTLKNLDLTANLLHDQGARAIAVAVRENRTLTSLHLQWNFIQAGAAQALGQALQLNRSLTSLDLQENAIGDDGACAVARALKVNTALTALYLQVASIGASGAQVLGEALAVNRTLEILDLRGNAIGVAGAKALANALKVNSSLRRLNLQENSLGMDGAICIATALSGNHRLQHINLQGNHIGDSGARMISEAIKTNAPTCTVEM
UniProt P18615, whole entry, looked up: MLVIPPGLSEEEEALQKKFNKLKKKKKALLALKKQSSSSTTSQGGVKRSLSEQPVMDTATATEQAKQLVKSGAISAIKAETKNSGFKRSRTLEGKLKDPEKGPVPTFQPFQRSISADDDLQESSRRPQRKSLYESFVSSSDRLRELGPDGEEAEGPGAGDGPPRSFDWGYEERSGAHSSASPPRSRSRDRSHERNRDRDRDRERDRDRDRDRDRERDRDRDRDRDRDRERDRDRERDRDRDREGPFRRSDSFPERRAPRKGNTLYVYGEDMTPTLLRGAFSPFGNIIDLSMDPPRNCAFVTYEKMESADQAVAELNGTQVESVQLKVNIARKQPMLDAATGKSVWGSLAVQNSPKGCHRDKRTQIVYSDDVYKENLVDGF
UniProt Q9HAN9, whole entry, looked up: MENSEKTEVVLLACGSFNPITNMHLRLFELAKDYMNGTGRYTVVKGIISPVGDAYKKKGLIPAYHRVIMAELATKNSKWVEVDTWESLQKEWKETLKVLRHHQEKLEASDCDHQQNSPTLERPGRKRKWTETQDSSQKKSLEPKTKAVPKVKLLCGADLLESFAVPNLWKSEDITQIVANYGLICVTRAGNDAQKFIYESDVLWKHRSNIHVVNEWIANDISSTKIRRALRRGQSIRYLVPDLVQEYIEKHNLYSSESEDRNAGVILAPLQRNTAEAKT
UniProt Q9Y2X3: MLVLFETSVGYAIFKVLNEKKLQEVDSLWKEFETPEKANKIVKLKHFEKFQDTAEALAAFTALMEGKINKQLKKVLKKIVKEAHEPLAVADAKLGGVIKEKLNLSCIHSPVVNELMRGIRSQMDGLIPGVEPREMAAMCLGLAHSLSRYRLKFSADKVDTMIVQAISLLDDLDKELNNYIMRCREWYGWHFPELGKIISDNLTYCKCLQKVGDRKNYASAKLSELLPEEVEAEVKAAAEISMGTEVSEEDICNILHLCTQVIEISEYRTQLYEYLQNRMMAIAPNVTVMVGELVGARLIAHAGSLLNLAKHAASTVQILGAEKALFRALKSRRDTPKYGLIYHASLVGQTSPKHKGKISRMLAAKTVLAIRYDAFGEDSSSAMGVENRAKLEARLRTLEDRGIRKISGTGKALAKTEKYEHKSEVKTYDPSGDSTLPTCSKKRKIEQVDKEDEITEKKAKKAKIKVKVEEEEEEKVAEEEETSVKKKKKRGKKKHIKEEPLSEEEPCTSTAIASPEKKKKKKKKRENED
UniProt P46087: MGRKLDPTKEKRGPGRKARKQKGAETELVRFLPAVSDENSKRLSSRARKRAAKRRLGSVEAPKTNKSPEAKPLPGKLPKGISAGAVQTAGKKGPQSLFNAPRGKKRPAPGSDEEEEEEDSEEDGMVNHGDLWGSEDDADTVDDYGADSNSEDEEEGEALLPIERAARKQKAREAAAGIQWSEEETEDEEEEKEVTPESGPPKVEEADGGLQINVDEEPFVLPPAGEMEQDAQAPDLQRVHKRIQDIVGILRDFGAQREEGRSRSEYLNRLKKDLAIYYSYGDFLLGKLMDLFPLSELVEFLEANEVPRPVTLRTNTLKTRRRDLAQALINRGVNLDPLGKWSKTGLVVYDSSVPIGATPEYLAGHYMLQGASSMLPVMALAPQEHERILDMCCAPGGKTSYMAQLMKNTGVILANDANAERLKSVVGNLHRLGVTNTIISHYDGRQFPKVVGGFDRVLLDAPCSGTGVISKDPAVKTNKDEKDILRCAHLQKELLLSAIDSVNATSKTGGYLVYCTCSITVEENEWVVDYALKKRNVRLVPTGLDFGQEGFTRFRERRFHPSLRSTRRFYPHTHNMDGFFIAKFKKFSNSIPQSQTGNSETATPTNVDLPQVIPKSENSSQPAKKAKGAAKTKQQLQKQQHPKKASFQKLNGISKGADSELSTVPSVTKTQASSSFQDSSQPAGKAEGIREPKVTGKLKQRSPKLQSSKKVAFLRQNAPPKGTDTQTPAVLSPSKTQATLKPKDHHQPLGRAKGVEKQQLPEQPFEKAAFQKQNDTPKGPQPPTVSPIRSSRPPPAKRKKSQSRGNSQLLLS
UniProt Q13423: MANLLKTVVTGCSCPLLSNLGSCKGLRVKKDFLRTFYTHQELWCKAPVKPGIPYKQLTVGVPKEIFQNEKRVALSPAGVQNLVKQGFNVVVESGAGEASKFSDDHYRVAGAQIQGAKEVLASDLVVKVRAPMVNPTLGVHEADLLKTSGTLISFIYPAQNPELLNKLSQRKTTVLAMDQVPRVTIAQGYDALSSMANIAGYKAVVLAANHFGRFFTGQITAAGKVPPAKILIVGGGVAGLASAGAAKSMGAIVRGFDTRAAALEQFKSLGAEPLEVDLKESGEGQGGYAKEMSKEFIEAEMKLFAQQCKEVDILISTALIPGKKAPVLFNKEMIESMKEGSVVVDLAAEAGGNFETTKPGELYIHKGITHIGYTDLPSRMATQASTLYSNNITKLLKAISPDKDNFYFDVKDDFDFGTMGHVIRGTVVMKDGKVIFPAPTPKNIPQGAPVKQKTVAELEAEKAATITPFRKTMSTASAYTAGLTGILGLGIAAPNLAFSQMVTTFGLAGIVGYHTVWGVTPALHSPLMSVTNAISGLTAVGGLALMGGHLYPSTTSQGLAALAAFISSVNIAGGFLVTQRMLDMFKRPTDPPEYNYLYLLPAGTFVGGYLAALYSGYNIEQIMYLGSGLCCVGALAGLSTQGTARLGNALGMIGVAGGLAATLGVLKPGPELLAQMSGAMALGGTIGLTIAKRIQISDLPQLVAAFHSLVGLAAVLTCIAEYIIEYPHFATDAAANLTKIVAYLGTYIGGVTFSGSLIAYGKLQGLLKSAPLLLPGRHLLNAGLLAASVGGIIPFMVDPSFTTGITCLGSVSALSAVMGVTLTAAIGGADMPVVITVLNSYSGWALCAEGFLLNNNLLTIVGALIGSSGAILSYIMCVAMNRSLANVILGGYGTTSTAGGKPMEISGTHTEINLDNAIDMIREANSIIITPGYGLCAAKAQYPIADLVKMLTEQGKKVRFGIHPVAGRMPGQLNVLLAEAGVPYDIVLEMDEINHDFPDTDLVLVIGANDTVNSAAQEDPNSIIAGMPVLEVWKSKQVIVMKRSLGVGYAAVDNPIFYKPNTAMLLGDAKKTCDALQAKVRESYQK
UniProt O60551: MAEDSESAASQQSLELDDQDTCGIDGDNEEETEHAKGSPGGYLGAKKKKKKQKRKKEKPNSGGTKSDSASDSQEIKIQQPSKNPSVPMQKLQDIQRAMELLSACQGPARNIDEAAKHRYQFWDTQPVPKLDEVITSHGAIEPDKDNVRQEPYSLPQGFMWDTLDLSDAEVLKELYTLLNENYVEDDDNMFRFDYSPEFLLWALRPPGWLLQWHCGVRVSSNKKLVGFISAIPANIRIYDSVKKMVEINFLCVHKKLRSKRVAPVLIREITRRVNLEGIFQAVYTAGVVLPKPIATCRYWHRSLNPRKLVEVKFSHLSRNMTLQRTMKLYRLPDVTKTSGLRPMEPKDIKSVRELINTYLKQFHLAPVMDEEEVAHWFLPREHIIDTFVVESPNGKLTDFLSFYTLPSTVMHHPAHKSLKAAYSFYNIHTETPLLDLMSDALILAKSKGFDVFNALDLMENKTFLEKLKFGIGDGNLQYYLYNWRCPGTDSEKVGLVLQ
UniProt Q9UMY1: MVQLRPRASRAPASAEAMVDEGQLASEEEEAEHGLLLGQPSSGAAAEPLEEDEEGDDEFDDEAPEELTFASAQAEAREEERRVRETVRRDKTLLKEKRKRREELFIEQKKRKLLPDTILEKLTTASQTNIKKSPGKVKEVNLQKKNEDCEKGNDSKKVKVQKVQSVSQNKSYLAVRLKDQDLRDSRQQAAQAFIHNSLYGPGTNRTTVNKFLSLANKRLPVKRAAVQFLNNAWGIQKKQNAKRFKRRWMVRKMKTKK
UniProt Q13232: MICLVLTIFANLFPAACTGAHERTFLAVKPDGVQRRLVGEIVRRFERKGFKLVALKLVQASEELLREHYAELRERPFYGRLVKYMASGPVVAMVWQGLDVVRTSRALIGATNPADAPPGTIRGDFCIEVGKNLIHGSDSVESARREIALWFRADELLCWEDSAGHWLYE

Tests used:
Test in all cases: log2 fold change, soluble protein after heating vs DMSO (PISA); higher = thermal stabilisation; K562 cells, 10 uM, 30 min; active = over 0.2 and 3.5 SD of the protein, either way, in both replicates (recomputed)
IRAK-1-4 Inhibitor I = compound: C1COCCN1CCN2C3=CC=CC=C3N=C2NC(=O)C4=CC(=CC=C4)[N+](=O)[O-] [IRAK-1-4 Inhibitor I]
Summary of the method: (§1)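 K562 cells at 2×10^6 cells/mL were given 10 μM compound for 30 min. Aliquots then went through 3 min of heating across 48°C-58°C, were pooled, and were extracted in PBS with 0.5% NP-40 at 4°C, and the supernatant after 21,000xg for 90 min was quantified by TMTpro 16plex LC-MS/MS with channel sums equalised. Thermal stability relative to control samples, from duplicates, is given as log2 fold change.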

ibrutinib = compound: C=CC(=O)N1CCC[C@@H](n2nc(-c3ccc(Oc4ccccc4)cc3)c3c(N)ncnc32)C1 [ibrutinib]
Summary of the method: as §1

[1] = compound: CC(=O)c1cnc2ccc(-c3cc(Cl)c(O)c(Cl)c3)nc2c1N[C@H]1CC[C@H](CN(C)C)CC1
Summary of the method: as §1

ralimetinib = compound: CC(C)(C)Cn1c(N)nc2ccc(-c3[nH]c(C(C)(C)C)nc3-c3ccc(F)cc3)nc21 [ralimetinib]
Summary of the method: as §1

[2] = compound: CC(C)(O)CC(=O)NCCn1ccc2ncnc(Nc3ccc(Oc4cccc(C(F)(F)F)c4)c(Cl)c3)c21
Summary of the method: as §1

[3] = compound: CC(C)C1=C2N=C(C=C(N2N=C1)NCC3=CC=CC=C3)NCCCCCCN
Summary of the method: as §1

[4] = compound: CC(C)C[C@@H](C=O)NC(=O)[C@H](CC(C)C)NC(=O)[C@H](CC(C)C)NC(=O)OCc1ccccc1
Summary of the method: as §1

pinometostat = compound: CC(C)N(C[C@H]1O[C@@H](n2cnc3c(N)ncnc32)[C@H](O)[C@@H]1O)[C@H]1C[C@@H](CCc2nc3cc(C(C)(C)C)ccc3[nH]2)C1 [pinometostat]
Summary of the method: as §1

[5] = compound: CC1=C(C(CC(=O)N1)C2=CC=C(C=C2)C(F)(F)F)C(=O)NC3=C(C=C4C(=C3)C=NN4)F
Summary of the method: as §1

[6] = compound: CC1=C(C2=C(C=C1)C(=O)C3=CC=CC=C3N2CCCN)C
Summary of the method: as §1

Row | Target | log2 fold change (IRAK-1-4 Inhibitor I) | log2 fold change (ibrutinib) | log2 fold change [1] | log2 fold change (ralimetinib) | log2 fold change [2] | log2 fold change [3] | log2 fold change [4] | log2 fold change (pinometostat) | log2 fold change [5] | log2 fold change [6]
1 | NEK9 (UniProt Q8TD19) | inactive: 0.003 | inactive: 0.006 | inactive: -0.046 | inactive: -0.028 | inactive: -0.059 | inactive: -0.074 | inactive: 0.008 | inactive: 0.004 | inactive: -0.009 | inactive: -0.035
2 | NIT1 (UniProt Q86X76) | inactive: 0.03 | inactive: 0.044 | inactive: 0.021 | inactive: -0.028 | inactive: 0 | inactive: 0.048 | inactive: -0.046 | inactive: -0.015 | inactive: 0.062 | inactive: -0.032
3 | NIPSNAP3A (UniProt Q9UFN0) | inactive: 0.062 | inactive: 0.05 | inactive: 0.051 | inactive: -0.003 | inactive: 0.002 | inactive: 0.085 | inactive: 0.02 | inactive: -0.01 | inactive: 0.006 | inactive: -0.007
4 | NHLRC3 (UniProt Q5JS37) | inactive: -0.172 | inactive: 0.083 | inactive: 0.004 | inactive: -0.08 | inactive: 0.024 | inactive: 0.048 | inactive: -0.002 | inactive: -0.112 | inactive: 0.092 | inactive: 0.04
5 | NIBAN2 (UniProt Q96TA1) | inactive: 0.026 | inactive: -0.02 | inactive: -0.12 | inactive: -0.022 | inactive: -0.048 | inactive: 0.043 | inactive: -0.009 | inactive: 0.003 | inactive: -0.005 | inactive: 0.005
6 | NEK7 (UniProt Q8TDX7) | inactive: 0.007 | inactive: 0.065 | inactive: -0.037 | inactive: -0.045 | inactive: -0.076 | inactive: -0.047 | inactive: 0.076 | inactive: -0.002 | inactive: 0.001 | inactive: 0.102
7 | NLRC3 isoform 2 (UniProt Q7RTR2) | inactive: 0.037 | inactive: -0.033 | inactive: -0.089 | inactive: -0.257 | inactive: 0.039 | inactive: -0.091 | inactive: 0.115 | inactive: 0.04 | inactive: 0.026 | 
8 | NFXL1 (UniProt Q6ZNB6) | inactive: 0.025 | inactive: 0.003 | inactive: 0.014 | inactive: 0.014 | inactive: -0.004 | inactive: 0.157 | inactive: 0.021 | inactive: -0.015 | inactive: 0.003 | inactive: 0.075
9 | NFU1 (UniProt Q9UMS0) | inactive: 0.063 | inactive: 0.034 | inactive: 0.014 | inactive: -0.093 | inactive: -0.016 | inactive: -0.085 | inactive: -0.086 | inactive: -0.045 | inactive: 0.022 | inactive: 0.08
10 | NMU (UniProt P48645) | inactive: -0.052 | inactive: 0.027 | inactive: 0.034 | inactive: 0.063 | inactive: 0.011 | inactive: 0.123 | inactive: 0.313 | inactive: -0.106 |  | inactive: -0.174
11 | NME1 isoform 2 (UniProt P15531) | inactive: 0.021 | inactive: 0.107 | inactive: -0.007 | inactive: -0.035 | inactive: 0.03 | inactive: 0.041 | inactive: 0.032 | inactive: -0.017 |  | inactive: 0.038
12 | NELFE isoform 3 (UniProt P18615) | inactive: -0.013 | inactive: -0.011 | inactive: -0.139 | inactive: -0.061 | inactive: 0.009 | inactive: -0.057 | inactive: 0.149 | inactive: 0.024 | inactive: 0.008 | inactive: 0.028
13 | NMNAT1 (UniProt Q9HAN9) | inactive: -0.007 | inactive: 0.073 | inactive: 0.05 | inactive: 0.18 | inactive: 0.13 | inactive: 0.093 | inactive: 0.168 | inactive: 0.429 |  | active: -0.674
14 | NOMO2 (UniProt Q5JPE7) | inactive: -0.011 | inactive: 0.011 | inactive: 0.007 | inactive: 0.027 | inactive: -0.019 | inactive: -0.1 | inactive: -0.008 | inactive: 0.009 | inactive: -0.001 | inactive: 0.033
15 | NPC2 (UniProt P61916) | inactive: 0.024 | inactive: 0.054 | inactive: 0.008 | inactive: -0.021 | inactive: -0.011 | inactive: -0.004 | inactive: -0.046 | inactive: -0.077 | inactive: 0.057 | inactive: -0.016
16 | NOP58 (UniProt Q9Y2X3) | inactive: -0.06 | inactive: 0.039 | inactive: -0.117 | inactive: -0.008 | inactive: 0.06 | inactive: 0.052 | inactive: 0.117 | inactive: 0.128 |  | inactive: -0.029

Fetched one by one from the list above, two records:
Row | Target | log2 fold change (IRAK-1-4 Inhibitor I) | log2 fold change (ibrutinib) | log2 fold change [1] | log2 fold change (ralimetinib) | log2 fold change [2] | log2 fold change [3] | log2 fold change [4] | log2 fold change (pinometostat) | log2 fold change [5] | log2 fold change [6]
3 | NIPSNAP3A (UniProt Q9UFN0) | inactive: 0.062 | inactive: 0.05 | inactive: 0.051 | inactive: -0.003 | inactive: 0.002 | inactive: 0.085 | inactive: 0.02 | inactive: -0.01 | inactive: 0.006 | inactive: -0.007
5 | NIBAN2 (UniProt Q96TA1) | inactive: 0.026 | inactive: -0.02 | inactive: -0.12 | inactive: -0.022 | inactive: -0.048 | inactive: 0.043 | inactive: -0.009 | inactive: 0.003 | inactive: -0.005 | inactive: 0.005

Next records.

Row | Target | log2 fold change (IRAK-1-4 Inhibitor I) | log2 fold change (ibrutinib) | log2 fold change [1] | log2 fold change (ralimetinib) | log2 fold change [2] | log2 fold change [3] | log2 fold change [4] | log2 fold change (pinometostat) | log2 fold change [5] | log2 fold change [6]
17 | NES (UniProt P48681) | inactive: -0.038 | inactive: 0.485 | inactive: 0.188 | inactive: 0.065 | inactive: 0.049 | inactive: -0.244 | inactive: 0.031 | inactive: 0.146 |  | inactive: 0.026
18 | NIPA2 (UniProt Q8N8Q9) | inactive: 0.033 | inactive: 0.008 | inactive: -0.058 | inactive: 0.159 | inactive: -0.081 | inactive: 0.036 | inactive: 0.053 | inactive: -0.031 | inactive: -0.106 | inactive: -0.018
19 | NOP53 (UniProt Q9NZM5) | inactive: -0.209 | inactive: 0.018 | inactive: 0.303 | inactive: 0.212 | inactive: 0.411 | inactive: 0.233 | inactive: 0.089 | inactive: 0.321 |  | active: -1.19
20 | NME2P1 (UniProt O60361) | inactive: -0.019 | inactive: -0.18 | inactive: -0.033 | inactive: 0.032 | inactive: -0.024 | inactive: -0.072 | inactive: -0.135 | inactive: 0.037 |  | inactive: 0.031
21 | NLRP2 (UniProt Q9NX02) | inactive: -0.095 | inactive: -0.056 | inactive: 0.024 | inactive: 0.165 | inactive: -0.067 | inactive: -0.269 | inactive: 0.051 | inactive: 0.139 | inactive: 0.066 | inactive: 0.02
22 | NRAS (UniProt P01111) | inactive: 0.045 | inactive: 0.005 | inactive: -0.093 | inactive: -0.038 | inactive: 0.041 | inactive: 0.13 | inactive: -0.021 | inactive: -0.029 | inactive: -0.024 | inactive: 0.003
23 | NIBAN1 (UniProt Q9BZQ8) | inactive: -0.125 | inactive: 0 | inactive: -0.163 | inactive: 0.084 | inactive: -0.07 | active: -0.277 | inactive: 0.037 | inactive: 0.068 |  | inactive: 0.02
24 | NOP2 isoform 4 (UniProt P46087) | inactive: -0.111 | inactive: -0.278 | inactive: 0.308 | inactive: 0.205 | inactive: 0.163 | inactive: 0.241 | inactive: 0.194 | inactive: 0.325 |  | inactive: -0.474
25 | NEU1 (UniProt Q99519) | inactive: -0.136 | inactive: -0.069 | inactive: -0.175 | inactive: 0.05 | inactive: 0.018 | active: -0.379 | inactive: 0.166 | inactive: -0.021 |  | inactive: -0.131
26 | NNT (UniProt Q13423) | inactive: 0.013 | inactive: -0.018 | inactive: -0.016 | inactive: -0.099 | inactive: -0.056 | inactive: 0.016 | inactive: -0.053 | inactive: -0.029 |  | inactive: 0.037
27 | NPM1 (UniProt P06748) | inactive: -0.125 | inactive: 0.027 | inactive: 0.073 | inactive: 0.115 | inactive: 0.171 | inactive: 0.023 | inactive: 0.028 | inactive: 0.171 | inactive: -0.038 | inactive: -0.562
28 | NLE1 (UniProt Q9NVX2) | inactive: 0.029 | inactive: 0.034 | inactive: 0.026 | inactive: -0.007 | inactive: 0.029 | inactive: 0.054 | inactive: -0.034 | inactive: -0.051 | inactive: -0.033 | inactive: 0.016
29 | NMT2 (UniProt O60551) | inactive: 0.006 | inactive: 0.064 | inactive: -0.031 | inactive: -0.017 | inactive: -0.022 | inactive: -0.125 | inactive: -0.019 | inactive: 0.053 |  | inactive: 0.01
30 | NOL7 (UniProt Q9UMY1) | inactive: -0.139 | inactive: 0.036 | inactive: 0.158 | inactive: 0.041 | inactive: 0.043 | inactive: 0.016 | inactive: 0.141 | inactive: 0.242 |  | inactive: -0.485
31 | NME3 (UniProt Q13232) | inactive: -0.014 | inactive: 0.016 | inactive: -0.005 | inactive: -0.087 | inactive: -0.01 | inactive: 0.088 | inactive: -0.025 | inactive: -0.039 | inactive: 0.01 | inactive: -0.027
